# In US7008911B2, “Non-surfactant solubilizing agent” (Ecolab, Inc., priority 2002, dated 2006):
# The name of at least one read-out is uncertain.
# Assay: Solubilizing base composition solvents into water with non-surfactant solubilizing agent
# Format: physicochemical
# Settings: 15% of the base composition (Table 1: water 55, DPnB 20, benzyl alcohol 15, PPh 10 wt %)
smiles,measurement,value
OCCN1CCCCC1,whether the non-surfactant solubilizing agent solubilized the solvents having an HLB value of 5–7 into the water,Yes
